Experimental data published in US20180371053A1 (UNIVERSITY OF NORTH CAROLINA AT CHAPEL HILL, published 2018).
Results are given in words; binding and its absence hold for the method and conditions named. Some entries that bind do so weakly or less than the wild type.

How the values were obtained:
[1] = molecular target: T1, human 2Ig-B7-H3 (human) (UniProt Q5ZPR3); assay: flow cytometry on Raji clones expressing 2Ig-hB7-H3
T1 sequence (looked up): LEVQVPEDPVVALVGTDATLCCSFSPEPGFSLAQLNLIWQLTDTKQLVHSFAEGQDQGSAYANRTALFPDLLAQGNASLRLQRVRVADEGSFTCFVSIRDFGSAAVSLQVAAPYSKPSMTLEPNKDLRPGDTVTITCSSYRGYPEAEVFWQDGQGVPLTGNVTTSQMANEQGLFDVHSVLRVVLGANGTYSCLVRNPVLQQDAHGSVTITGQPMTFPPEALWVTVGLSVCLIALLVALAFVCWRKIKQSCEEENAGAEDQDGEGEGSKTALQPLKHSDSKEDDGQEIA

[2] = molecular target: T2, human B7-H3 (CD276) naturally expressed on pancreatic cancer (PDAC) cells and tissues (human) (UniProt Q5ZPR3); assay: flow cytometry of PDAC cell lines stained with mAb 376.96
T2 sequence (looked up): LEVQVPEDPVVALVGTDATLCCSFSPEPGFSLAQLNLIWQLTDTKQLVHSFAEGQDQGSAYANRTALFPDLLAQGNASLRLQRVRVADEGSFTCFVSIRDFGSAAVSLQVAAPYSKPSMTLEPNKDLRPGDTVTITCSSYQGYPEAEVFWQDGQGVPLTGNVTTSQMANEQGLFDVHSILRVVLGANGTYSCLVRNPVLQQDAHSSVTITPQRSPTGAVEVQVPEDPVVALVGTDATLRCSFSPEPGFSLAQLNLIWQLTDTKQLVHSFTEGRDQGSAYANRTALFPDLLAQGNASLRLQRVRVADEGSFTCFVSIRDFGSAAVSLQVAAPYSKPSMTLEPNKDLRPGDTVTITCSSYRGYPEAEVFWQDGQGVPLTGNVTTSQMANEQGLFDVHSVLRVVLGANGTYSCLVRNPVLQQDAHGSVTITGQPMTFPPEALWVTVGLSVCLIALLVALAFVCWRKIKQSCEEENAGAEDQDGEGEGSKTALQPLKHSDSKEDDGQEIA

[3] = molecular target: T2, human B7-H3 (CD276) naturally expressed on pancreatic cancer (PDAC) cells and tissues (human); assay: immunohistochemistry of frozen PDAC tissue with mAb 376.96 at 1 µg/mL

binding [1]: binds
binding [2]: binds
binding [3]: binds
B1: anti-B7-H3 mAb 376.96 (antibody, V domains shown)
VH: EVQLVESGGGLVKPGGSLKLSCEASRFTFSSYAMSWVRQTPEKRLEWVAAISGGGRYTYYPDSMKGRFTISRDNAKNFLYLQMSSLRSEDTAMYYCARHYDGYLDYWGQGTTLTVSS
VL: DIVMTQSHKFMSTSIGARVSITCKASQDVRTAVAWYQQKPGQSPKLLIYSASYRYTGVPDRFTGSGSGTDFTFTISSVQAEDLAVYYCQQHYGTPPWTFGGGTKLEIK
notes: The residue ranges are my derivation
